Results reported in patent US20190322766A1.
These are yes or no findings as the source states them, for the method shown. Some results given as binding are weak or reduced against the parent protein; the word gives no strength.

T1: peptides containing sequence … (Pepscan array, linear and single loop) (human)
T1 sequence (peptide): YQCRVTHPHLPRALM


Molecular target: T1, peptides containing sequence … (Pepscan array, linear and single loop) (human)
Assay: Pepscan CLIPS peptide array

| Binder | binding |
| --- | --- |
| hLAAIGE E17 (antibody, human IgG1, kappa, V domains shown) VH: QVQLVQSGSELKKPGASVKVSCKASGYTFTNYGMNWVRQAPGQGLEWMGWINTYTGEPTYADDFKGRFVFSLDTSVSTAYLQISSLKAEDTAVYYCARGAASHTMDYWGQGTTVTVSS VL: DIVMTQSPDSLAVSLGERATINCRASQSVSTSSHAYMHWYQQKPGQPPKLLIYYASNLESGVPDRFSGSGSGTDFTLTISSLQAEDVAVYYCQHSWEIPWTFGQGTKLEIKR | binds |
| hLAAIGE E59 (antibody, human IgG1, kappa, V domains shown) VH: QVQLVQSGSELKKPGASVKVSCKASGYTFTNYGMNWVRQAPGQGLEWMGWINTYTGEPTYADDFKGRFVFSLDTSVSTAYLQISSLKAEDTAVYYCARGAASHTMDYWGQGTTVTVSS VL: DIVMTQSPDSLAVSLGERATINCRASQSVSTSSHSYMHWYQQKPGQPPKLLIYYASNLESGVPDRFSGSGSGTDFTLTISSLQAEDVAVYYCQHSWEIPWTFGQGTKLEIKR | binds |
